# From the supplement of paper PMC10338343
# ± gives the standard deviation. The list shows a part of the results, in another mix than the full data. Many entries were measured with a wide error. The list shows a part of the results.
# What was measured:
# [1] = test system: MIWI (PIWIL1) piRISC loaded with L1MC piRNA (30 nt); test: pre-steady-state target cleavage rate (min^-1); higher = faster piRNA-guided slicing of the target; details: guide: L1MC piRNA 5'p-UAACUAAAUACUAUGCAAGCUGUAGGUCCU;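 note: 1 nM active piRISC with 0.1 nM target library at 33 °C single turnover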
# Summary of the method: (§1)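 A transcribed, DNA-blocked target RNA library […] was incubated at 33 °C for 0–8 or 0–960 min with 1 nM active affinity-purified piRISC carrying one synthetic guide, in HEPES–potassium acetate buffer with or without 500 nM GTSF1 partner protein. Uncleaved targets were then sequenced and normalised to depth and to weakly complementary targets. Data from three trials were pooled, with k3 capped at 0.0001 min^-1, and a burst-and-steady-state fit yielded the pre-steady-state cleavage rate.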
# [2] = test system: EfPiwi piRISC loaded with L1MC piRNA (26 nt); test: pre-steady-state target cleavage rate (min^-1); guide: L1MC piRNA 5'p-UAACUAAAUACUAUGCAAGCUGUAGG; MIWI and MILI are mouse PIWI proteins and EfPiwi is from a freshwater sponge; tags in brackets are library labels; higher = faster piRNA-guided slicing of the target
# Summary of the method: as §1
# [3] = auxiliary factor: none (no GTSF1)
# [4] = auxiliary factor: 500 nM Ephydatia muelleri Gtsf1
# [5] = auxiliary factor: 500 nM mouse GTSF1
# [6] = auxiliary factor: none (no Gtsf1)
Sequence,"pre-steady-state target cleavage rate [1, 3]","pre-steady-state target cleavage rate [2, 4]","pre-steady-state target cleavage rate [1, 5]","pre-steady-state target cleavage rate [2, 6]"
UCCUGGAUGUCGAAGCAUAGUAUUAACUUA,0.000209 ± 0.029,0.000115 ± 0.031,,
UCCUGGAUGUCGAAGCAUAGUAUUUAGUUUA,0.00143 ± 0.0063,0.002 ± 0.0055,,
UCCUGGAUCAGCUUGCAUAGUAAUAAGUUA,0.00256 ± 0.0037,0.00234 ± 0.0018,,
UCCUGGAUGUGCUUGCAUACAAUUUAGUUA,0.00222 ± 0.0036,0.00179 ± 0.0069,,
UCCUGGAUGUCGAACCAUAGUCAUUUAGUUA,0.000393 ± 0.013,0.000277 ± 0.026,,
UCCUGGAUGUCGAUCCAUAGUAUUUAGAUA,0.00028 ± 0.017,0.000176 ± 0.015,,
UCCUGGUACAGGAUGCAUAGUAUUUUCAAA,0.000123 ± 0.025,0.00166 ± 0.003,,
UCCUGGAUGUCGAUCGCAUAGUAUUUAGUUA,0.000904 ± 0.006,0.00287 ± 0.0032,,
UCCUGGAUGUCCUUGCAUAGUAAAAAGUAA,0.000938 ± 0.007,0.00114 ± 0.0071,,
UCCUGCUACAGCUACGAUAGUAUUUAGAAA,0.000324 ± 0.0097,0.000288 ± 0.012,,
UCCUGGAUGUGCUUGCAUAGUAAUAAGUUA,,0.000383 ± 0.014,0.00117 ± 0.0093,
UCCUGGAUGUCCUUGCAUAGAAUAUAGUUA,0.000971 ± 0.0076,0.00145 ± 0.0073,,
UCCUGGAUGUCGAAGCAUUGUAUAUAGUUA,0.000158 ± 0.033,0.000432 ± 0.011,,
UCCUGGAUGUCGAACGUUAGUAAAUAGUUA,0.000156 ± 0.035,,,< 0.0001
UCCUGGAUGAGCUUGCAAUGUAUUUAGUAA,0.00278 ± 0.0033,0.000323 ± 0.013,,
UCCUGGAUGUCGUUGCAUAGUUAAUAGUUA,0.0015 ± 0.005,0.00043 ± 0.01,,
UCCUGGAUGAGCUACGAUAGUAUUUAGUAA,0.000384 ± 0.016,0.000291 ± 0.017,,

# Single entries from the entries so far.
# Value for UCCUGGAUGUCGAAGCAUAGUAUUAACUUA under pre-steady-state target cleavage rate [1, 3]: 0.000209 ± 0.029
# Value for UCCUGGAUGUGCUUGCAUAGUAAUAAGUUA under pre-steady-state target cleavage rate [2, 4]: 0.000383 ± 0.014

# Further entries

Sequence,"pre-steady-state target cleavage rate [1, 3]","pre-steady-state target cleavage rate [2, 4]","pre-steady-state target cleavage rate [1, 5]","pre-steady-state target cleavage rate [2, 6]"
UCCUGGAUGUCGUUGCAUAGUCUUUAGUUA,0.00263 ± 0.0034,0.00182 ± 0.003,,
UCCUGGAUGUCGAACUAUAGUAUUUAGUUA,,0.000345 ± 0.012,0.00101 ± 0.0061,
UCCUGGAUGUCGUUGCAUACUAUUUAGAUA,0.00049 ± 0.011,0.000185 ± 0.018,,
UCCUGGAUCAGCUUCCAUAGUAUUUAGUAA,0.00172 ± 0.0034,0.00347 ± 0.0017,,
UCCUGGAUGUCGAUGCAUAGUAUUUGAGUUA,0.000746 ± 0.0079,0.00103 ± 0.0076,,
UCCUGGAUGUCGAUGCAUAGUUAAAUCAAA [g10:g17:cont:t1A],0.000532 ± 0.0094,0.000165 ± 0.015,,
UCCUGGAUGUCGUGUGCAUAGUAUUUAGUUA,0.00228 ± 0.006,,,0.000795 ± 0.011
UCCUCCUACAGGUUCCAUAGUAUUUAGUUA,0.00144 ± 0.0043,0.0023 ± 0.0012,,
UCCUGGAUGUGCUACCAUAGUAUUUAGAAA,0.000541 ± 0.011,0.00141 ± 0.0064,,
UCCUGGAUGUGCUUGUCAUAGUAUUUAGUUA,0.00143 ± 0.006,0.00492 ± 0.0031,,
UCCUGGAUGUGCUACCAUAGUAUUUAGUUA,0.000899 ± 0.0063,0.00116 ± 0.0036,,
UCCUGGAUGAGGAAGCAUAGUAUUUACAAA,0.000765 ± 0.0083,0.000279 ± 0.016,,
UCCUGGAUCAGCUUCCAUAGUAAUUAGUUA,0.000855 ± 0.0081,0.000784 ± 0.0059,,
UCCUGGUACACCAUGCAUAGUAUUUAGUUA,0.00202 ± 0.0029,0.00335 ± 0.0031,,
UCCUGGAUGUCGAUGCAUACUAAUUAGUUA,0.000618 ± 0.0091,0.000973 ± 0.0067,,
UCCUGGUACAGCUUGCAUUCUAUUUAGAAA,0.000332 ± 0.0089,0.000329 ± 0.015,,
